Record: PubChem BioAssay AID504791 (Drosophila RNAi Screening Center, 2011)
In all, the deposit lists about 23,000 reagents; this is an unselected part of those with a known target gene and a result. In the full data, 199 (0.86%) are marked active. 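Plate-scaled ratios behind the calls are not deposited; printed light signals are raw; many rows marked increased or decreased are still called inactive.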 Reagents against one gene are numbered here. Not given: the direction of the score.

Aim: 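Genes of the fly required for silencing by miRNA, siRNA or endo-siRNA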 (primary screen)
System: Drosophila S2-derived reporter cells
Reagent: long dsRNA against Drosophila genes, about 150-250 ng dsRNA per well (siRNA assay); about 80-120 ng (miRNA assay)
Duration: about 5 days (siRNA assay); about 4 days (miRNA assay)
Treatment: copper sulfate induction of reporters: 25 µM (siRNA assay); 200 mM stated (miRNA assay), 1-2 days before reading
Read-out: 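Per-well ratio of Renilla over firefly light, expressed relative to that plate's average ratio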
Units: stable assay Renilla, run 1 in luminescence; stable assay firefly, run 1 in luminescence
Call rule: 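a well was a first-pass pick when its plate-scaled ratio rose above 1.5 (siRNA assay) or 1.6 (miRNA assay), or dropped below 0.6; a gene counted only if two separate dsRNAs agreed on retest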

TotA (Turandot A) | stable assay Renilla, run 1 = 4979; stable assay firefly, run 1 = 5.31e5; Call = inactive
Vti1b (Vesicle transport through interaction with t-SNAREs 1b) #1 | stable assay Renilla, run 1 = 8604; stable assay firefly, run 1 = 3.48e5; Call = inactive
Vti1b (Vesicle transport through interaction with t-SNAREs 1b) #2 | stable assay Renilla, run 1 = 6747; stable assay firefly, run 1 = 3.07e5; Call = inactive
Ctr1C (Copper transporter 1C) | stable assay Renilla, run 1 = 6371; stable assay firefly, run 1 = 3.33e5; Call = inactive
CG11044 | stable assay Renilla, run 1 = 6410; stable assay firefly, run 1 = 3.25e5; Call = inactive
CG32284 | stable assay Renilla, run 1 = 4919; stable assay firefly, run 1 = 4.73e5; Call = inactive
Alg7 #1 | stable assay Renilla, run 1 = 18215; stable assay firefly, run 1 = 1.32e6; Call = inactive
Alg7 #2 | stable assay Renilla, run 1 = 8894; stable assay firefly, run 1 = 4.69e5; Call = inactive
CG5386 | stable assay Renilla, run 1 = 5958; stable assay firefly, run 1 = 2.71e5; Call = inactive
Gr28b (Gustatory receptor 28b) #1 | stable assay Renilla, run 1 = 7324; stable assay firefly, run 1 = 3.65e5; Call = inactive
Gr28b (Gustatory receptor 28b) #2 | stable assay Renilla, run 1 = 7514; stable assay firefly, run 1 = 3.96e5; Call = inactive
CG10931 | stable assay Renilla, run 1 = 5575; stable assay firefly, run 1 = 2.81e5; Call = inactive

Continued, starting with the last 2 of the part before.
Gr28b (Gustatory receptor 28b) #2 | stable assay Renilla, run 1 = 7514; stable assay firefly, run 1 = 3.96e5; Call = inactive
CG10931 | stable assay Renilla, run 1 = 5575; stable assay firefly, run 1 = 2.81e5; Call = inactive
CG18493 | stable assay Renilla, run 1 = 8630; stable assay firefly, run 1 = 3.66e5; Call = inactive
sky (skywalker) #1 | stable assay Renilla, run 1 = 13372; stable assay firefly, run 1 = 5.21e5; Call = inactive
sky (skywalker) #2 | stable assay Renilla, run 1 = 16767; stable assay firefly, run 1 = 4.86e5; Call = inactive
sky (skywalker) #3 | stable assay Renilla, run 1 = 7438; stable assay firefly, run 1 = 4.89e5; Call = inactive
Ubqn (Ubiquilin) | stable assay Renilla, run 1 = 6848; stable assay firefly, run 1 = 4.83e5; Call = inactive
CG3546 | miRNA reporter change = reporter ratio lowered past the hit cutoff; stable assay Renilla, run 1 = 3632; stable assay firefly, run 1 = 3.23e5; Call = inactive
CG5139 | stable assay Renilla, run 1 = 6568; stable assay firefly, run 1 = 4.23e5; Call = inactive
